Laboratory results as given in the supplement of paper PMC10849652.
The other results are listed elsewhere or left out.

By UniProt entry, the sequences of proteins in these tests, tags left out. Where a name states a change or a piece, a line headed by the entry shows the natural chain unless it says otherwise.
UniProt Q07108: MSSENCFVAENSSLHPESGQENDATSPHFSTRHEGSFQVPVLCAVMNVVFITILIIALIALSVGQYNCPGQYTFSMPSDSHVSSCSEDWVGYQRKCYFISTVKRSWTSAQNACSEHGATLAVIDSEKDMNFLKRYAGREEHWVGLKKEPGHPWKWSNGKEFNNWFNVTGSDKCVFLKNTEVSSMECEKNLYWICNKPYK
UniProt Q9UKL3: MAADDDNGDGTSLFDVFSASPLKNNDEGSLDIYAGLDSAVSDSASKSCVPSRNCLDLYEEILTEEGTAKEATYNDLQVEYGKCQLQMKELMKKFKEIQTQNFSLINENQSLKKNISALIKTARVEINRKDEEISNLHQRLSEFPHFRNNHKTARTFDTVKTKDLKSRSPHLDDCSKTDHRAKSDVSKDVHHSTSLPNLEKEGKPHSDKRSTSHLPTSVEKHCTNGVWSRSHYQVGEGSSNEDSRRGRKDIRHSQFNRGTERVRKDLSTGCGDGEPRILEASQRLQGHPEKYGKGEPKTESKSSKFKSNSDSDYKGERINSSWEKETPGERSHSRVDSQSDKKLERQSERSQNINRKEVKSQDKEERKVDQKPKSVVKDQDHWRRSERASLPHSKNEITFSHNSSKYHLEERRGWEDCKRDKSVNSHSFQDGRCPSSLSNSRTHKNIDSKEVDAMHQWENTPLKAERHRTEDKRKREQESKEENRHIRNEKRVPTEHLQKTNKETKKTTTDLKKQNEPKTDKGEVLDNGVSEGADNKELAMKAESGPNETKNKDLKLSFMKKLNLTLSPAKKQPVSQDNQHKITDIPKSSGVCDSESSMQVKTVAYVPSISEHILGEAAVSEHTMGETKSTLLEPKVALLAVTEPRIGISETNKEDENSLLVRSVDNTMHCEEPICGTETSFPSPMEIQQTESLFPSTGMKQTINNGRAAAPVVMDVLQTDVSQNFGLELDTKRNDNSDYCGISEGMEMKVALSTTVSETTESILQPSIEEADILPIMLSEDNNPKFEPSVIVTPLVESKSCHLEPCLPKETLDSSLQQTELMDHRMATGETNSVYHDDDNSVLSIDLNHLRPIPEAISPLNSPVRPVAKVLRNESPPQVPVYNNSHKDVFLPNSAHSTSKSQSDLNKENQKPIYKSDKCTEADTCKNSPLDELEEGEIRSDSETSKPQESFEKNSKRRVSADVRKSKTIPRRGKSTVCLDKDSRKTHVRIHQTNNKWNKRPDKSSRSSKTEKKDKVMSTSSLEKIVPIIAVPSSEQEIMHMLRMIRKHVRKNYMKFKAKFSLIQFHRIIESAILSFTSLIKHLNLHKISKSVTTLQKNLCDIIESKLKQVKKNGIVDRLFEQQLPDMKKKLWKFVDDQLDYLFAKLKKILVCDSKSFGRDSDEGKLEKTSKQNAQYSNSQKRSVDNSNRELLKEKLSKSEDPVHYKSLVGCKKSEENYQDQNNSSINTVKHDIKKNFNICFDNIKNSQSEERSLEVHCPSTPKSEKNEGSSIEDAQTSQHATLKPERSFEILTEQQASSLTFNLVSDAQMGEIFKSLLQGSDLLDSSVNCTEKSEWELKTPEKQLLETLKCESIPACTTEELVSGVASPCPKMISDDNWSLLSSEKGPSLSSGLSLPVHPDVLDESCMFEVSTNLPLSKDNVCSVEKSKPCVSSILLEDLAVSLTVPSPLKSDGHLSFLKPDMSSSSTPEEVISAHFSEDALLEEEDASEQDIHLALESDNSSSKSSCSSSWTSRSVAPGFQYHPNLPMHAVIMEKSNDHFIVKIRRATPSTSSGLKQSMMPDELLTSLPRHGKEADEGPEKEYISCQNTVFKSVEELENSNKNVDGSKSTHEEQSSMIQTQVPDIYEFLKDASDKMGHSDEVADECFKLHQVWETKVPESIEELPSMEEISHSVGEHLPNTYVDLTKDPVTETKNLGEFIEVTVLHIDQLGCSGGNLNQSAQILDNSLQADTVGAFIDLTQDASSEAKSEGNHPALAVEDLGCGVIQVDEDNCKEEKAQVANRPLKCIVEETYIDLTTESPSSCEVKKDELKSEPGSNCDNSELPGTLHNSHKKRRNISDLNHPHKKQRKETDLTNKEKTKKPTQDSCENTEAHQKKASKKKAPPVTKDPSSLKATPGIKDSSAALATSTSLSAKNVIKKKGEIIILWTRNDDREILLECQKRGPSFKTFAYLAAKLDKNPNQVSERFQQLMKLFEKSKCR
UniProt P40259: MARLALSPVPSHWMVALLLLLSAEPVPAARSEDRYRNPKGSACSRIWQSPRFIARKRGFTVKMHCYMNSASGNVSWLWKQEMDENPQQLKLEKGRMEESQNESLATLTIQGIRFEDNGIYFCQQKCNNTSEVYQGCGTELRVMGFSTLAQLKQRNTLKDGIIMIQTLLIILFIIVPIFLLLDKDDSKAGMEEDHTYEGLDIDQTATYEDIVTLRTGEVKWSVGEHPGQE
UniProt Q3V6T2: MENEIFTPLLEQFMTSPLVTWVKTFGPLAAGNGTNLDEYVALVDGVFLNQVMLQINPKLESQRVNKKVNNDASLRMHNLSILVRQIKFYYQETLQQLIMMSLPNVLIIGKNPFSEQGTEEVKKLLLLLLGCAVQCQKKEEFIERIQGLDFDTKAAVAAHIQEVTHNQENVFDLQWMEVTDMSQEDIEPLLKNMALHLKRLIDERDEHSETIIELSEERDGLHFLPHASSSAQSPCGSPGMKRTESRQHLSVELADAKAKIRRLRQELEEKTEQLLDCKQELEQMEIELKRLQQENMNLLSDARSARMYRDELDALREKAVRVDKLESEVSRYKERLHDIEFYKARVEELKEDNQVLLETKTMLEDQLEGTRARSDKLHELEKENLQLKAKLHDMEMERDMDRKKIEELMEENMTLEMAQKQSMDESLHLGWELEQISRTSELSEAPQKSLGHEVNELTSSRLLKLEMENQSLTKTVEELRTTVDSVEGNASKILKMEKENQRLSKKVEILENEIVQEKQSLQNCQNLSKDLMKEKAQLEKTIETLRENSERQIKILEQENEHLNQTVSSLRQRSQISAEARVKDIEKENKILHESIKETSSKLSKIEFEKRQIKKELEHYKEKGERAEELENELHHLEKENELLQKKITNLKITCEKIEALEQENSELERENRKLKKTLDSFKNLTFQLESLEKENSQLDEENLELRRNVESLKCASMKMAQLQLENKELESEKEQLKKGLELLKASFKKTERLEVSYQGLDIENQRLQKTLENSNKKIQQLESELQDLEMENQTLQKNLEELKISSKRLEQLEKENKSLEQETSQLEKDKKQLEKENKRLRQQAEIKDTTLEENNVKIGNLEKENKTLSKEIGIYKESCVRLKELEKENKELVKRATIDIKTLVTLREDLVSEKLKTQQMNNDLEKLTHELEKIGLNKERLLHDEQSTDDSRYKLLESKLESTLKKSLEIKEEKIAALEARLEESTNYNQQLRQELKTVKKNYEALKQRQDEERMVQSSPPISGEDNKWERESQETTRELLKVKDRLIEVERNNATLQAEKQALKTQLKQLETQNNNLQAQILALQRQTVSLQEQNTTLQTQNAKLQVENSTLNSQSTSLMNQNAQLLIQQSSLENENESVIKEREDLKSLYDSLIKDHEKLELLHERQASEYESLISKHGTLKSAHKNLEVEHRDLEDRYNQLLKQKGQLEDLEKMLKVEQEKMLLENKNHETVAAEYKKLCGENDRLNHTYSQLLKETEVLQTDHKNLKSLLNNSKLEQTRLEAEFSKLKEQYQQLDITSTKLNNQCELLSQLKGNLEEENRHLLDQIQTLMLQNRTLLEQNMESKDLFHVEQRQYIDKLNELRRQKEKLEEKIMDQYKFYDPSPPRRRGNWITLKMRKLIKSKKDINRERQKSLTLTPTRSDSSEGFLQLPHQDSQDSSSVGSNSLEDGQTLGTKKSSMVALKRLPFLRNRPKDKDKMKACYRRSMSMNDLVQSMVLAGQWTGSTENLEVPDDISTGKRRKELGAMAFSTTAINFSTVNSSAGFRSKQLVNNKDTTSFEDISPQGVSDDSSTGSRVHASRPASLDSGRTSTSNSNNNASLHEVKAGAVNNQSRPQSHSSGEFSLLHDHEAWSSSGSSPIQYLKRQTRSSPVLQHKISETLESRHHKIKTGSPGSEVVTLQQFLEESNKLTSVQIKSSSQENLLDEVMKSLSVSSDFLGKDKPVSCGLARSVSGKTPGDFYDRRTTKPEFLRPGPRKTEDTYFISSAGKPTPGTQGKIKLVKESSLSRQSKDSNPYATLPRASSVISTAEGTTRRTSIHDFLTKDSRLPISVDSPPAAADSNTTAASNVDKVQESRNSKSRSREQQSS
UniProt Q8WTX7: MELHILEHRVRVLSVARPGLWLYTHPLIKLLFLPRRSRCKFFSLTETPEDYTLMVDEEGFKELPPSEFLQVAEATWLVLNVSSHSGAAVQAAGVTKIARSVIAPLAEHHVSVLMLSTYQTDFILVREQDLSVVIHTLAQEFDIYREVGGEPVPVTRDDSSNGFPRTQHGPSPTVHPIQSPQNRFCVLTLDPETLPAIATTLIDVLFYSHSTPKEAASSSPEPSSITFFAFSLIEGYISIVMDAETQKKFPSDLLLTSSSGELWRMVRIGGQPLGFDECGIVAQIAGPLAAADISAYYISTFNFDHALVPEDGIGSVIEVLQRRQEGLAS
UniProt Q9UK58: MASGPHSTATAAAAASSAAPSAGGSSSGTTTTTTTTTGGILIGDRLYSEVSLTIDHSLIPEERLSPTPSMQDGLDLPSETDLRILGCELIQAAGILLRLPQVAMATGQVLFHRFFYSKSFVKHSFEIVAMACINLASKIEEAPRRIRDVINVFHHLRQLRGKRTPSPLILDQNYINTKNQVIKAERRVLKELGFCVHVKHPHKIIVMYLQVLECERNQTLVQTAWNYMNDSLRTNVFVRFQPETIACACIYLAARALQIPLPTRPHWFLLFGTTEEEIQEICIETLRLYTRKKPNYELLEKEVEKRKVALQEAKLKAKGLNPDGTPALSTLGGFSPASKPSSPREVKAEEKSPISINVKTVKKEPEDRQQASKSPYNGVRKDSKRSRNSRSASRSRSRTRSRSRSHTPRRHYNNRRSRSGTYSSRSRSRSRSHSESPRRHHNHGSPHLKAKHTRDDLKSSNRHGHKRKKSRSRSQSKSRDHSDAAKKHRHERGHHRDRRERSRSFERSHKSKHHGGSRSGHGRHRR
UniProt Q9H0W5: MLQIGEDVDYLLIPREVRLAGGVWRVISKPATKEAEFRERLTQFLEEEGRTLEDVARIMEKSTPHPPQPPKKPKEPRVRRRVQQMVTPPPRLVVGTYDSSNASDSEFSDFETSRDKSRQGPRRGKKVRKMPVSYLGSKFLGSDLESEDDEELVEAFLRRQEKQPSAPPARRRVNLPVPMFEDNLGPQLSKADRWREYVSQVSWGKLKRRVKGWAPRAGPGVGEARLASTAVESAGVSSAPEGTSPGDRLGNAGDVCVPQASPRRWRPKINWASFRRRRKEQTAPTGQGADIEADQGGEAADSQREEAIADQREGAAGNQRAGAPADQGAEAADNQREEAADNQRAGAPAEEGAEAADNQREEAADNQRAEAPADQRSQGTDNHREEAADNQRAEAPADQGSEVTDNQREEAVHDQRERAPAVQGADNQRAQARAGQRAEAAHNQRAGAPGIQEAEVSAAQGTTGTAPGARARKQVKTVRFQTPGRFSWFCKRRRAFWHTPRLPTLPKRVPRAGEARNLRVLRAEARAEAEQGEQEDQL
UniProt Q2TAC2: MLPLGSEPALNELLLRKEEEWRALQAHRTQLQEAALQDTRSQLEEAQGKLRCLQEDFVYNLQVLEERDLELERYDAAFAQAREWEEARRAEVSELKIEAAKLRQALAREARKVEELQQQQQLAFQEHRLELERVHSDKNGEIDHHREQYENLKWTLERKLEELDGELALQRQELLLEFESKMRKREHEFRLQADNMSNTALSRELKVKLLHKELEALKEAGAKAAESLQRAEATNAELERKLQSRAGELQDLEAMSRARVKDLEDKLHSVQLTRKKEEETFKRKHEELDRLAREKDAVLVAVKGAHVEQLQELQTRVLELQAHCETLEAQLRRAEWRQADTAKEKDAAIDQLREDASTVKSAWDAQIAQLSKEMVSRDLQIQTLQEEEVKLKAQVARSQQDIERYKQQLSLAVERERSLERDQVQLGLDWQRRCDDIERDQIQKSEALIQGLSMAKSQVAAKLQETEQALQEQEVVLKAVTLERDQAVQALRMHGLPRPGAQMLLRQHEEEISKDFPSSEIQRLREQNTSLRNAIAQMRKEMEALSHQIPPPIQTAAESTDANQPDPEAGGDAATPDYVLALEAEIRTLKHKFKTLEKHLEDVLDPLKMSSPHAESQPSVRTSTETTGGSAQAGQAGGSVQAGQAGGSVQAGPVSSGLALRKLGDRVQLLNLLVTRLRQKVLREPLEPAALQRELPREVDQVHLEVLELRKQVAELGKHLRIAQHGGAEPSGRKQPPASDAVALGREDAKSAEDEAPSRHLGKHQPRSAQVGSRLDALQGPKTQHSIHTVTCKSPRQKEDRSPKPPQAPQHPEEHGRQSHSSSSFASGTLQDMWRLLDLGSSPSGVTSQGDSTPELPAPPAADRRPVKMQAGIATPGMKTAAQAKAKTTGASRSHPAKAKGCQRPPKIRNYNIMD

What was measured:
Assay in all cases: log2 fold change, soluble protein after heating vs DMSO (PISA); higher = thermal stabilisation; K562 lysate, 10 uM; active = over 0.2 and 3.5 SD of the protein, either way, in both replicates (recomputed)
[1] = compound: C/C(=N\NC(=O)C1=CC(=CC=C1)S(=O)(=O)N2CCOCC2)/C3=C(C=CC(=C3)Cl)O
Summary of the method: (§1)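 The values are log-two fold changes in thermal stability compared with solvent controls and come from duplicates. They were obtained by TMTpro 16plex LC-MS/MS, with channel sums equalised, on the supernatant after 21,000xg for 90 min. That supernatant came from crude K562 extract at 1 mg/mL protein treated with 10 μM compound for 30 min, heated for 3 min across 48°C-58°C, pooled and brought to 0.5% NP-40 at 4°C.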

[2] = compound: C1=CC2=C(C=CC(=C2)/C=C\3/C(=O)NC(=NCC4=CC=CS4)S3)N=C1
Summary of the method: as §1

[3] = compound: C1=CC2=NC=CN=C2C=C1/C=C/3\C(=O)NC(=O)S3
Summary of the method: as §1

[4] = compound: C1=CC=C(C=C1)C2=NC(=C(N2)C3=CC=NC=C3)C4=CC(=C(C=C4)Cl)O
Summary of the method: as §1

[5] = compound: C1=CC=C2C(=C1)C3=NNC4=CC=CC(=C43)C2=O
Summary of the method: as §1

[6] = compound: C1CCN(C1)C(=O)NC2=CC=CC(=C2)NC3=NC=C(C(=N3)NCCC4=CN=CN4)Br
Summary of the method: as §1

[7] = compound: C1CN(CCC1(CC2=CC=C(C=C2)Cl)N)C3=NC=NC4=C3C=CN4
Summary of the method: as §1

IRAK-1-4 Inhibitor I = compound: C1COCCN1CCN2C3=CC=CC=C3N=C2NC(=O)C4=CC(=CC=C4)[N+](=O)[O-] [IRAK-1-4 Inhibitor I]
Summary of the method: as §1

ibrutinib = compound: C=CC(=O)N1CCC[C@@H](n2nc(-c3ccc(Oc4ccccc4)cc3)c3c(N)ncnc32)C1 [ibrutinib]
Summary of the method: as §1

[8] = compound: CC(=O)c1cnc2ccc(-c3cc(Cl)c(O)c(Cl)c3)nc2c1N[C@H]1CC[C@H](CN(C)C)CC1
Summary of the method: as §1

ralimetinib = compound: CC(C)(C)Cn1c(N)nc2ccc(-c3[nH]c(C(C)(C)C)nc3-c3ccc(F)cc3)nc21 [ralimetinib]
Summary of the method: as §1

[9] = compound: CC(C)(O)CC(=O)NCCn1ccc2ncnc(Nc3ccc(Oc4cccc(C(F)(F)F)c4)c(Cl)c3)c21
Summary of the method: as §1

[10] = compound: CC1=C(C(CC(=O)N1)C2=CC=C(C=C2)C(F)(F)F)C(=O)NC3=C(C=C4C(=C3)C=NN4)F
Summary of the method: as §1

[11] = compound: CC1=C(C2=C(C=C1)C(=O)C3=CC=CC=C3N2CCCN)C
Summary of the method: as §1

[12] = compound: CC1=C(C=C(C=C1)NC(=O)C2=CC(=CC=C2)C(C)(C)C#N)NC3=CC4=C(C=C3)N=CN(C4=O)C
Summary of the method: as §1

[13] = compound: CC1=C(C=C(C=C1)NC(=O)C2=CC(=CC=C2)N(C)C)NC(=O)C3=CC=C(C=C3)O
Summary of the method: as §1

[14] = compound: CC1=CC=C(C=C1)SC2=C3C=C(SC3=CN=C2)C(=O)N
Summary of the method: as §1

Measured: log2 fold change

CCNT2 (UniProt O60583)
inactive: [1] -0.252 | [2] -0.036 | [3] -0.047 | [4] 0.006 | [5] 0.119 | [6] 0.023 | [7] 0.07 | IRAK-1-4 Inhibitor I 0.091 | ibrutinib -0.014 | [8] -0.325 | ralimetinib -0.008 | [9] -0.148 | [10] 0.003 | [11] -0.086 | [12] 0.113 | [13] 0.039 | [14] 0.061

CASP10 isoform 2 (UniProt Q92851)
inactive: [4] -0.094 | [6] -0.156 | [7] -0.111 | IRAK-1-4 Inhibitor I -0.147 | ralimetinib 0.139 | [9] 0.022 | [11] -0.032 | [13] 0.032

CD69 (UniProt Q07108)
inactive: [12] -0.122

CCDC13 (UniProt Q8IYE1)
inactive: [1] 0.036 | [2] -0.026 | [3] -0.075 | [5] -0.28 | [6] -0.114 | [7] 0.232 | ibrutinib 0.412 | [8] -0.024 | [10] 0 | [11] -0.412 | [12] 0.151 | [14] -0.052

CCDC138 (UniProt Q96M89)
inactive: [10] 0.033

CD33 (UniProt P20138)
inactive: [8] -0.041 | [10] 0.015 | [11] 0.13 | [12] -0.357 | [14] 0.064

2 records drawn at random from the list so far, as already listed:
CCDC138 (UniProt Q96M89)
inactive: [10] 0.033

CD33 (UniProt P20138)
inactive: [8] -0.041 | [10] 0.015 | [11] 0.13 | [12] -0.357 | [14] 0.064

Additional results follow:

CCDC9, A0A2R8Y4Z8
inactive: [3] 0.075 | [4] 0.045 | IRAK-1-4 Inhibitor I 0.279 | ibrutinib -0.005 | [8] -0.185 | ralimetinib -0.082 | [9] -0.133 | [11] -0.122 | [12] -0.154 | [13] 0.058 | [14] -0.04

CCND1 (UniProt P24385)
inactive: [12] 0.151

CCAR2 (UniProt G3V119)
inactive: [8] 0.017 | [14] -0.047

CCDC18 (UniProt Q5T9S5)
inactive: [4] 0.121 | [6] -0.095 | [7] -0.045 | IRAK-1-4 Inhibitor I 0.143 | ralimetinib -0.02 | [9] -0.133 | [10] -0.087 | [11] 0.003 | [12] 0.077 | [13] -0.021

CCDC175 (UniProt P0C221)
inactive: [1] 0.018 | [2] -0.052 | [5] -0.169 | [6] -0.023 | [7] 0.225 | [8] 0.055 | [14] 0.025

CBX8 (UniProt Q9HC52)
inactive: [1] -0.255 | [2] 0.133 | [5] -0.046 | [6] -0.168 | [7] -0.02 | [12] 0.027

CASP8AP2 (UniProt Q9UKL3)
inactive: [3] 0.038 | [4] 0.074 | [6] -0.016 | [7] 0.043 | IRAK-1-4 Inhibitor I -0.183 | ibrutinib -0.065 | ralimetinib 0.079 | [9] -0.016 | [12] -0.111 | [13] -0.037

CCDC85C (UniProt A6NKD9)
inactive: [1] -0.426 | [2] 0.012 | [3] -0.062 | [5] -0.046 | [6] 0.058 | [7] 0.018 | ibrutinib 0.003 | [8] -0.029 | [10] 0.027 | [11] 0.051 | [12] 0.032 | [14] -0.023

CCNE1 (UniProt P24864)
inactive: [1] -0.146 | [2] 0.067 | [3] 0.051 | [4] 0.01 | [5] 0 | [6] 0.072 | [7] 0.074 | IRAK-1-4 Inhibitor I 0.007 | ibrutinib 0.09 | [8] 0.069 | ralimetinib 0.07 | [9] -0.028 | [11] 0.024 | [12] 0.064 | [13] -0.038 | [14] -0.103

CD79B isoform 3 (UniProt P40259)
inactive: [11] -1.68

CCT6B (UniProt Q92526)
inactive: [3] 0.082 | ibrutinib 0.168 | [8] -0.022 | [14] 0.016

CARHSP1 (UniProt H3BNU9)
inactive: [3] -0.215 | ibrutinib 0.147 | [8] -0.005 | [10] -0.107 | [14] 0.107

CD226 (UniProt Q15762)
inactive: [3] -0.148 | ibrutinib 0.122 | [8] 0.183 | [14] 0.142

CCDC88A isoform 2 (UniProt Q3V6T2)
inactive: [10] 0.085

CCDC71L (UniProt Q8N9Z2)
inactive: [11] 0.064

CASTOR1 (UniProt Q8WTX7)
inactive: [12] 0.131

CCDC66 (UniProt A2RUB6)
inactive: [4] 0.048 | [6] -0.04 | [7] -0.021 | IRAK-1-4 Inhibitor I 0.043 | ralimetinib 0.017 | [9] -0.159 | [13] 0.052

Copied from the listing (two entries):
CASP10 isoform 2 (UniProt Q92851)
inactive: [4] -0.094 | [6] -0.156 | [7] -0.111 | IRAK-1-4 Inhibitor I -0.147 | ralimetinib 0.139 | [9] 0.022 | [11] -0.032 | [13] 0.032

CD69 (UniProt Q07108)
inactive: [12] -0.122

Remaining list, next part:

CCNL1 (UniProt Q9UK58)
inactive: [6] -0.036 | [7] -0.024 | [8] 0.042 | [10] 0.089 | [12] -0.016 | [14] 0.01

CASP8 isoform 4 (UniProt Q14790)
inactive: [3] 0.096 | ibrutinib 0.001 | [11] 0.072

CBX2 (UniProt Q14781)
inactive: [8] -0.253 | [10] 0.174 | [14] -0.192

CCT8 (UniProt H7C4C8)
inactive: [4] 0.008 | IRAK-1-4 Inhibitor I 0.139 | ralimetinib 0.061 | [9] 0.056 | [10] -0.003 | [12] -0.125 | [13] -0.094

CBX3 (UniProt B8ZZ43)
inactive: [4] 0.022 | IRAK-1-4 Inhibitor I 0.038 | ralimetinib -0.006 | [9] -0.179 | [10] -0.055 | [12] -0.02 | [13] 0.011

CCDC8 (UniProt Q9H0W5)
inactive: [10] 0.066 | [11] -0.049

CCDC59 (UniProt Q9P031)
inactive: [1] 0.006 | [2] -0.077 | [3] 0.018 | [5] 0.042 | [6] 0.071 | [7] -0.003 | ibrutinib 0.02 | [8] -0.052 | [10] 0.028 | [11] -0.059 | [12] 0.039 | [14] -0.066

CCDC57 (UniProt Q2TAC2)
inactive: [1] 0.041 | [2] -0.015 | [3] -0.023 | [4] 0.042 | [5] -0.035 | [6] -0.105 | [7] -0.062 | IRAK-1-4 Inhibitor I 0.016 | ibrutinib -0.041 | [8] -0.063 | ralimetinib -0.053 | [9] -0.03 | [10] -0.038 | [11] 0.02 | [13] -0.05 | [14] -0.007
